# Source: PubChem BioAssay AID1347131 (National Center for Advancing Translational Sciences (NCATS), 2019)
# Out of some 410,000 compounds screened, about 2,000 (0.49%) were called active. Inconclusive results, whose numbers are uncertain, are shown with a selection of clear calls. Calls follow the shape of the full dose curve; tested in HEK293 reporter line. Potencies of inconclusive entries are doubtful fits and often do not repeat.
# Assay: qHTS Assay for Foot and Mouth Disease Virus Antivirals: Primary Screen against the MLPCN compound library; also: nearly all actives have a fitted effect of over 55% in size
# Details: FMDV antiviral cell-based qHTS; activity, negative = inhibition: at 57.9 µM (top of the series)
# Potency is read from the fitted curve at half-maximal effect.
SMILES,Potency,"activity, negative = inhibition"
COc1ccc(-c2c(C)nn3c(C(F)(F)F)cc(-c4ccc(Br)cc4)nc23)cc1,"inconclusive: 12.6 µM [inhibitor, partial curve]",
COC1=C(Br)C(=O)c2ncccc2C1=O,"inconclusive: 35.5 µM [inhibitor, single point]",
Cc1cccc(OCCCCn2nnc3sc4c(c3c2=O)CCC(C)C4)c1 (stereo not drawn),inactive,
CCS(=O)(=O)c1ccc(C(=O)Nc2cccc(Cl)c2)c(Cl)c1Cl,"inconclusive: 28.2 µM [inhibitor, partial curve, poor fit]",
COC(OC)C12c3ccccc3C(c3ccccc31)C1C(=O)N(c3cccnc3)C(=O)C12 (stereo not drawn),inactive,
Cn1c(=O)c2c(SCC(=O)N3CCN(c4ccccc4)CC3)nc(C3CC3)nc2n(C)c1=O,inactive,
O=C(CCn1c(=O)c2cccn2c2ccc(F)cc21)NCCc1ccccc1Cl,"inconclusive: 22.4 µM [inhibitor, partial curve, poor fit]",
Cc1oc2ccc(OC(=O)N(C)C)cc2c1C(=O)OC(C)C,"inconclusive: 25.1 µM [inhibitor, partial curve, poor fit]",
N#Cc1c(N)nc(Sc2ccc(Cl)cc2)c(C#N)c1-c1ccccc1Cl,"inconclusive: 28.2 µM [inhibitor, partial curve, poor fit]",
CCOc1ccc(C(=O)Nc2ccc(S(=O)(=O)N3CCCCC3c3cccnc3)cc2)cc1 (stereo not drawn),"inconclusive: 31.6 µM [inhibitor, partial curve, poor fit]",
O=C(Nc1ccc(N2CCN(C(=O)c3ccccc3)CC2)cc1)c1ccc2c(c1)OCCO2,"inconclusive: 31.6 µM [inhibitor, partial curve, poor fit]",
Cc1cc(=O)oc2cc(Oc3ccc([N+](=O)[O-])cc3[N+](=O)[O-])ccc12,"inconclusive: 35.5 µM [inhibitor, partial curve, poor fit]",
COc1ccc(CCNC(=O)c2cc(-c3ccccc3)c(N3CCOCC3)s2)cc1OC,"inconclusive: 22.4 µM [inhibitor, single point]",
CO/N=C\c1cc(C(=O)c2ccc(Cl)cc2Cl)cn1C,inactive,
Oc1ccccc1N1CCN(c2ncnc3sc(-c4ccccc4)cc23)CC1,"inconclusive: 14.1 µM [inhibitor, partial curve, poor fit]",
O=C(/C=C/Nc1ccc(F)cc1)c1ccco1,"inconclusive: 20 µM [inhibitor, single point]",
C=CCC[C@H](Cc1ccc(F)cc1)C(=O)OC[C@H](Cc1c[nH]c2ccccc12)NC(=O)[C@H](CC=C)CC(=O)NCCO,"inconclusive: 25.1 µM [inhibitor, single point]",
CCCCC[C@H](O)/C=C/C1C(=O)C=C[C@H]1C/C=C\CCCC(=O)OC (stereo partly drawn),"inconclusive: 25.1 µM [inhibitor, partial curve, poor fit]",
O=C(c1ccc(Cl)cc1)c1ccc(OCC(O)CN2CCOCC2)cc1 (stereo not drawn),,inconclusive: -49% [inhibitor]

# Part of the list above, with bars between the fields:
SMILES | Potency | activity, negative = inhibition
Cc1cc(=O)oc2cc(Oc3ccc([N+](=O)[O-])cc3[N+](=O)[O-])ccc12 | inconclusive: 35.5 µM [inhibitor, partial curve, poor fit] | 
C=CCC[C@H](Cc1ccc(F)cc1)C(=O)OC[C@H](Cc1c[nH]c2ccccc12)NC(=O)[C@H](CC=C)CC(=O)NCCO | inconclusive: 25.1 µM [inhibitor, single point] | 

# Remaining list, next part.

SMILES,Potency,"activity, negative = inhibition"
COc1ccc(COC(=O)C2CCN(S(=O)(=O)c3ccc(Cl)cc3)CC2)cc1,"inconclusive: 14.1 µM [inhibitor, partial curve, poor fit]",
O=C(O)c1ccc2nc(-c3cc4cc(F)ccc4oc3=O)[nH]c2c1,"inconclusive: 15.8 µM [inhibitor, single point]",
COc1ccc(CNCC(O)COc2cccc3c2OC(C)(C)C3)cc1 (stereo not drawn),"inconclusive: 7.08 µM [inhibitor, partial curve, poor fit]",
O=C(Nc1ccc2oc(-c3cccnc3)nc2c1)c1ccc(-c2ccccc2)o1,"inconclusive: 35.5 µM [inhibitor, single point]",
COc1ccccc1N(CC(=O)NCc1ccccc1)S(C)(=O)=O,"inconclusive: 14.1 µM [inhibitor, partial curve]",
COc1ccc(NC(=O)CN2CCCC2c2cccs2)cc1S(=O)(=O)N1CCCCC1 (stereo not drawn),"inconclusive: 39.8 µM [inhibitor, partial curve, poor fit]",
N/C(=N\OC(=O)/C=C/c1ccccc1)c1ccccn1,"inconclusive: 31.6 µM [inhibitor, single point]",
CCN(C(=O)COC(=O)/C=C/c1cccc(Br)c1)C1CCS(=O)(=O)C1 (stereo not drawn),inactive,
CCc1ccc(CN2CCC(n3nccc3NC(=O)c3ccccc3Cl)CC2)cc1,"inconclusive: 31.6 µM [inhibitor, partial curve, poor fit]",
COc1ccc(N2CCN(CCNC(=O)Nc3ccc(Cl)cc3)CC2)cc1,"inconclusive: 7.94 µM [inhibitor, partial curve]",
COc1ccc2cc3c(N)nn(C(=O)c4ccc(Cl)c([N+](=O)[O-])c4)c3nc2c1,"inconclusive: 0.631 µM [inhibitor, partial curve, poor fit]",
CCCCNc1c(-c2ccc(SC3CCCCC3)c(OC)c2)nc2ccc(C)cn12,"inconclusive: 28.2 µM [inhibitor, partial curve, poor fit]",
Cc1ccc(NC(=O)N(Cc2ccc3c(c2)OCO3)C2CCN(Cc3ccccc3)CC2)cc1C,"inconclusive: 14.1 µM [inhibitor, partial curve]",
COc1cccc(-c2sc3ccc(OC)cc3c2-c2ccc(OCCN3CCCC3)cc2)c1,inactive,
CCOC(=O)/C(=N/Nc1ccccc1)c1csc(Nc2ccccc2)n1,"inconclusive: 39.8 µM [inhibitor, single point]",
Cc1cc(N2CCN(C)CC2)nc2ccc(NC(=S)NCCN3CCc4ccccc4C3)cc12,"inconclusive: 5.62 µM [inhibitor, partial curve, poor fit]",
CCCn1c(=O)c2sccc2n2c(CCCC(=O)N3CCN(c4cccc(C)c4C)CC3)nnc12,"inconclusive: 15.8 µM [inhibitor, partial curve, poor fit]",
O=C(CSc1n[nH]c(-c2cccs2)n1)N1CCN(S(=O)(=O)c2ccc3ccccc3c2)CC1,"inconclusive: 22.4 µM [inhibitor, partial curve, poor fit]",
CCC(/C=C1\Sc2ccc(OC)cc2N1CCO)=C\c1sc2ccc(OC)cc2[n+]1CCO,"inconclusive: 17.8 µM [inhibitor, partial curve, poor fit]",
